For the assay, the target named is T1, PINK1 tagged with either LgBiT or SmBiT, Q9BXM7.
T1 chain: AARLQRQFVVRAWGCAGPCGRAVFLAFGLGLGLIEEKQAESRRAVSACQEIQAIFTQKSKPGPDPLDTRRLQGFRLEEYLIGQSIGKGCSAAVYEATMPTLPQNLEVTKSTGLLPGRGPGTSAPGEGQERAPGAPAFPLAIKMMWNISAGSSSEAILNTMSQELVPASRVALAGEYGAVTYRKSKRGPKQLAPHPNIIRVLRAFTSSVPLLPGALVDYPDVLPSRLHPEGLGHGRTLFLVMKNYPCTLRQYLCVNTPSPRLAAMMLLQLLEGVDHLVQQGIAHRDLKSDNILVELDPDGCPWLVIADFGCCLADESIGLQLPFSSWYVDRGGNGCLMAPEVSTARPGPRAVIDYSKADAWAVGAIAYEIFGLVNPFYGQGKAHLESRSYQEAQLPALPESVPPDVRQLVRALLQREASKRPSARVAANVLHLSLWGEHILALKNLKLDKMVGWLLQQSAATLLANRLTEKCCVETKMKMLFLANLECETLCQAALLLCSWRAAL
In words: split reporter. Particulars: remark: other sources report otherwise.

These are yes or no findings as the source states them, for the method shown. In cells and extracts the contact can be indirect. Some results given as binding are weak or reduced against the parent protein; the word gives no strength. Where a sequence is shown, tags or fusion partners need not be part of it.

B1: PINK1 tagged with either LgBiT or SmBiT, Q9BXM7 78-581 (protein)
chain: AARLQRQFVVRAWGCAGPCGRAVFLAFGLGLGLIEEKQAESRRAVSACQEIQAIFTQKSKPGPDPLDTRRLQGFRLEEYLIGQSIGKGCSAAVYEATMPTLPQNLEVTKSTGLLPGRGPGTSAPGEGQERAPGAPAFPLAIKMMWNISAGSSSEAILNTMSQELVPASRVALAGEYGAVTYRKSKRGPKQLAPHPNIIRVLRAFTSSVPLLPGALVDYPDVLPSRLHPEGLGHGRTLFLVMKNYPCTLRQYLCVNTPSPRLAAMMLLQLLEGVDHLVQQGIAHRDLKSDNILVELDPDGCPWLVIADFGCCLADESIGLQLPFSSWYVDRGGNGCLMAPEVSTARPGPRAVIDYSKADAWAVGAIAYEIFGLVNPFYGQGKAHLESRSYQEAQLPALPESVPPDVRQLVRALLQREASKRPSARVAANVLHLSLWGEHILALKNLKLDKMVGWLLQQSAATLLANRLTEKCCVETKMKMLFLANLECETLCQAALLLCSWRAAL
As to B1, the binding entry is on record as “binds”.

These data come from doi:10.1101/2023.02.14.528378.
